The values below come from patent publication US20070128672A1.

The target in the assay is mutant murine p53 from the mouse tumour cell line MethA (mouse) (UniProt P02340). In words: immunoprecipitation from MethA lysate, immunoblot (FIG. 8 legend). For orientation: A western blot detects proteins with antibodies after separation by electrophoresis.

These are yes or no findings as the source states them, for the method shown. Some entries that bind do so weakly or less than the wild type.

B1: whole anti-p53 antibody from CHO clone C4B4 (antibody, V domains shown)
VH: VQLLEQSGAEVKRPGASVTISCQASRQDFSGQYIHWVRQAPGQGFEWMGIINPSGGSANYAPKFKGRLTMSRDSSTDTVYMTLTSLTSEDTAVYYCLLQALKHWGQGTLVAVSS
VL: AAELTQSPDSLAVALGERATINCKSSQSVLYSLNNKNYLAWYQQKPGQPPKLLIHWASTRESGVPDRFSGSGSETDFTLTISSLQAEDVAVYYCQQYYTTPYTFGQGTKLEIK
Turning to B1, the binding entry was “binds”.
